Results from the supplement of paper PMC12067093, “Discovery and optimisation of a covalent ligand for TRIM25 and its application to targeted protein ubiquitination” (Chemical Science, 2025).
Some of the results follow.

Compound: Cc1cc(ccc1-c1ccccc1)C(=O)N1CCCN(CC1)C(=O)CCl [compound 10]
Experiment: probe-labelled cysteine peptide fold change vs DMSO (competition) (log2 fold change); higher = less target engagement (more negative = stronger competition)
Settings: THP-1, incubation time: 4 h
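Note: competitive profiling in live THP-1 cells: cysteine peptides tagged with an iodoacetamide desthiobiotin (IA-DTB) probe, intensity after compound treatment relative to DMSO-treated cells.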

| Target | probe-labelled cysteine peptide fold change (10 µM) | probe-labelled cysteine peptide fold change (50 µM) |
| --- | --- | --- |
| HNRNPA3_P51991_85+94_GFGFVTYSCVEEVDAAMCARPHK (UniProt P51991) | -0.224 | -0.281 |
| HTT_P42858_2792_VGALHGVLYVLECDLLDDTAK (UniProt P42858) | -0.0059 | 0.169 |
| HTATSF1_O43719_328_HPDGVASVSFRDPEEADYCIQTLDGR (UniProt O43719) | 0.17 | 0.118 |
| HSD17B4_P51659_455_ELICHNQFSLFLVGSGGFGGK (UniProt P51659) | -0.00227 | 0.624 |
| HSP90AA1_P07900_529_HGLEVIYMIEPIDEYCVQQLK (UniProt P07900) | -0.0361 | 0.15 |
| HSPA4L_O95757_167_SVMAAAQVAGLNCLR (UniProt O95757) | -0.0227 | 0.0182 |
| HPS1_Q92902_165_LREQEQCFAVEALER (UniProt Q92902) | -0.00352 | -0.0513 |
| HTT_P42858_777_GATAILCGTLICSILSR (UniProt P42858) | -0.228 | -0.284 |
| HSP90AA1_P07900_529_KHGLEVIYMIEPIDEYCVQQLK (UniProt P07900) | -0.104 | -0.172 |
| HOMEZ_Q8IX15_110_CGISWSSEEIEETR (UniProt Q8IX15) | 0.0803 | 0.166 |
| HOMEZ_Q8IX15_273_DKPPPIALIASSCK (UniProt Q8IX15) | -0.152 | 0.067 |
| HSF1_Q00613_103_DDTEFQHPCFLR (UniProt Q00613) | -0.18 | -0.0287 |
| HNRNPUL2_Q1KMD3_308_EGCTEVSLLR (UniProt Q1KMD3) | 0.0493 | -0.324 |
| HSDL2_Q6YN16_136_ACIPYLK (UniProt Q6YN16) | -0.159 | -0.0627 |
| HPS4_Q9NQG7_63_CVSDISDSPPTLVR (UniProt Q9NQG7) | -0.0973 | 0.014 |
| HNRNPAB_Q99729_224_KFHTVSGSKCEIK (UniProt Q99729) | -0.175 | -0.448 |
| HSF1_Q00613_373_CLSVACLDK (UniProt Q00613) | -0.339 | -0.524 |
| HNRNPD_Q14103_226_GFCFITFK (UniProt Q14103) | 0.23 | 0.223 |
| HTT_P42858_1152_VINICAHVLDDVAPGPAIK (UniProt P42858) | 0.114 | 0.193 |
| HTT_P42858_664_FVLRDEATEPGDQENKPCR (UniProt P42858) | -0.112 | -0.471 |
| HPS4_Q9NQG7_547_MNLYTHCVK (UniProt Q9NQG7) | 0.0158 | -0.348 |
| HSP90AB1_P08238_412_CLELFSELAEDK (UniProt P08238) | 0.16 | 0.151 |
| HNRNPD_Q14103_226_GFCFITFKEEEPVK (UniProt Q14103) | 0.296 | -0.0829 |

A run of entries from further up, as a working copy:

| Target | probe-labelled cysteine peptide fold change (10 µM) | probe-labelled cysteine peptide fold change (50 µM) |
| --- | --- | --- |
| HSP90AA1_P07900_529_HGLEVIYMIEPIDEYCVQQLK (UniProt P07900) | -0.0361 | 0.15 |
| HSPA4L_O95757_167_SVMAAAQVAGLNCLR (UniProt O95757) | -0.0227 | 0.0182 |
